# The supplement of paper PMC8728848
# Some of the results follow.
# How the values were obtained:
# Test in all cases: glycan array binding signal (z-score within array); higher = stronger binding
# Conditions in all cases: glycan notation: IUPAC condensed, linker removed
# [1] = molecular target: Fuc(a1-2)[GalNAc(a1-3)]Gal(b1-4)GlcNAc(b1-3)GalNAc
# Summary of the method: (§1)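 Glycan array data came from 3228 arrays in the Consortium for Functional Glycomics database, and only arrays with an available protein sequence were kept. Glycan names were put into IUPAC-condensed notation, and columns mapping to the same glycan were averaged. The binding signal is a within-array Z-score, averaged across arrays of one protein sequence run at different concentrations or buffers and across linkers. A negative Z-score can be read as non-binding.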
# [2] = molecular target: Fuc(a1-2)[GalNAc(a1-3)]Gal(b1-4)GlcNAc(b1-3)[Fuc(a1-2)[GalNAc(a1-3)]Gal(b1-4)GlcNAc(b1-6)]GalNAc
# Summary of the method: as §1
# [3] = molecular target: Fuc(a1-2)[GalNAc(a1-3)]Gal(b1-4)GlcNAc(b1-6)GalNAc
# Summary of the method: as §1
# [4] = molecular target: Fuc(a1-2)[GalNAc(a1-3)]Gal(b1-4)[Fuc(a1-3)]GlcNAc
# Summary of the method: as §1
# [5] = molecular target: Fuc(a1-2)[GalNAc(a1-3)]Gal(b1-4)[Fuc(a1-3)]GlcNAc(b1-3)GalNAc
# Summary of the method: as §1
# [6] = molecular target: Fuc(a1-2)[GalNAc(a1-4)]Gal(b1-4)GlcNAc
# Summary of the method: as §1
# [7] = molecular target: Fuc(a1-2)[GalNAc(b1-3)]Gal
# Summary of the method: as §1
# Fuc(a1-3)GlcNAc = molecular target: Fuc(a1-3)GlcNAc
# Summary of the method: as §1
# [8] = molecular target: Fuc(a1-3)[Gal(b1-4)]Glc6S
# Summary of the method: as §1
# [9] = molecular target: Fuc(a1-3)[Gal(b1-4)]GlcNAc
# Summary of the method: as §1
# [10] = molecular target: Fuc(a1-3)[Gal(b1-4)]GlcNAc(b1-2)Man
# Summary of the method: as §1
# [11] = molecular target: Fuc(a1-3)[Gal(b1-4)]GlcNAc(b1-2)Man(a1-3)[Fuc(a1-3)[Gal(b1-4)]GlcNAc(b1-2)Man(a1-6)]Man(b1-4)GlcNAc(b1-4)GlcNAc
# Summary of the method: as §1
# [12] = molecular target: Fuc(a1-3)[Gal(b1-4)]GlcNAc(b1-2)Man(a1-3)[Fuc(a1-3)[Gal(b1-4)]GlcNAc(b1-2)Man(a1-6)]Man(b1-4)GlcNAc(b1-4)[Fuc(a1-6)]GlcNAc
# Summary of the method: as §1
# [13] = molecular target: Fuc(a1-3)[Gal(b1-4)]GlcNAc(b1-3)Gal(b1-3)[Fuc(a1-4)]GlcNAc
# Summary of the method: as §1
# [14] = molecular target: Fuc(a1-3)[Gal(b1-4)]GlcNAc(b1-3)Gal(b1-4)[Fuc(a1-3)]GlcNAc
# Summary of the method: as §1
# [15] = molecular target: Fuc(a1-3)[Gal(b1-4)]GlcNAc(b1-3)Gal(b1-4)[Fuc(a1-3)]GlcNAc(b1-3)Gal(b1-4)[Fuc(a1-3)]GlcNAc
# Summary of the method: as §1
# [16] = molecular target: Fuc(a1-3)[Gal(b1-4)]GlcNAc(b1-3)GalNAc
# Summary of the method: as §1
# [17] = molecular target: Fuc(a1-3)[Gal(b1-4)]GlcNAc(b1-4)Gal(b1-4)[Fuc(a1-3)]GlcNAc
# Summary of the method: as §1
# [18] = molecular target: Fuc(a1-3)[Gal(b1-4)]GlcNAc(b1-4)Gal(b1-4)[Fuc(a1-3)]GlcNAc(b1-4)Gal(b1-4)[Fuc(a1-3)]GlcNAc
# Summary of the method: as §1
# [19] = molecular target: Fuc(a1-3)[Gal(b1-4)]GlcNAc(b1-6)GalNAc
# Summary of the method: as §1
# [20] = molecular target: Fuc(a1-3)[Gal(b1-4)]GlcNAc(b1-6)[Gal(b1-3)GlcNAc(b1-3)]Gal(b1-4)Glc
# Summary of the method: as §1
# [21] = molecular target: Fuc(a1-3)[Gal(b1-4)]GlcNAc(b1-6)[Neu5Ac(a2-3)Gal(b1-3)]GalNAc
# Summary of the method: as §1
# [22] = molecular target: Fuc(a1-3)[Gal(b1-4)]GlcNAc6S
# Summary of the method: as §1
# [23] = molecular target: Fuc(a1-3)[Gal3S(b1-4)]Glc
# Summary of the method: as §1
# [24] = molecular target: Fuc(a1-3)[Gal3S(b1-4)]GlcNAc
# Summary of the method: as §1
# [25] = molecular target: Fuc(a1-3)[Gal3S(b1-4)]GlcNAc6S
# Summary of the method: as §1
# [26] = molecular target: Fuc(a1-3)[GalNAc(b1-4)]GlcNAc
# Summary of the method: as §1
# [27] = molecular target: Fuc(a1-3)[GalNAc(b1-4)]GlcNAc6S
# Summary of the method: as §1
# [28] = molecular target: Fuc(a1-3)[GalNAc3S(b1-4)]GlcNAc
# Summary of the method: as §1
# Fuc(a1-4)GlcNAc = molecular target: Fuc(a1-4)GlcNAc
# Summary of the method: as §1
# Fuc(b1-3)GlcNAc = molecular target: Fuc(b1-3)GlcNAc
# Summary of the method: as §1
# Gal(a1-2)Gal = molecular target: Gal(a1-2)Gal
# Summary of the method: as §1
# Gal(a1-3)Gal = molecular target: Gal(a1-3)Gal
# Summary of the method: as §1
# Gal(a1-3)Gal(b1-3)GlcNAc = molecular target: Gal(a1-3)Gal(b1-3)GlcNAc
# Summary of the method: as §1
# [29] = molecular target: Gal(a1-3)Gal(b1-3)GlcNAc(b1-2)Man
# Summary of the method: as §1
# [30] = molecular target: Gal(a1-3)Gal(b1-3)GlcNAc(b1-2)Man(a1-3)[Gal(a1-3)Gal(b1-3)GlcNAc(b1-2)Man(a1-6)]Man(b1-4)GlcNAc(b1-4)GlcNAc
# Summary of the method: as §1
# [31] = molecular target: Gal(a1-3)Gal(b1-3)GlcNAc(b1-3)GalNAc
# Summary of the method: as §1
binder,measurement,setting,value
"LlpA1 (Pseudomonas fluorescens), Q4KHC3 (protein) MGSSHHHHHHSSGLVPRGSHMAWIRYDFTDNGSSVLPARYYMAPNQYLQSPNKRFKLLFQADGNLALYDGAQLAWVADQNTPFTNVSKGNKKDPMMVFMNYGFVLDDPLRGRIWSTTPSDPTMGSREDASLRAFTQVQDDGNIVTVDTIPHWYAPNGRVFTPAVGAAMIIGGTTELVPGQFYSAGEHSLVFQGDGNLVVYGPNSSVIWATYTQNKGGVRCVMQEDGNLVIYAANNGVVWQSGTGGHPGATIRLQANGSFTIVTERPVWARFGYTPTIKPPRVFYPDHKWKTGSYTWNNVF",glycan array binding signal (z-score),[1],-0.468
same,glycan array binding signal (z-score),[2],0.203
same,glycan array binding signal (z-score),[3],-0.019
same,glycan array binding signal (z-score),[4],0.114
same,glycan array binding signal (z-score),[5],1.55
same,glycan array binding signal (z-score),[6],0.06
same,glycan array binding signal (z-score),[7],0.713
same,glycan array binding signal (z-score),Fuc(a1-3)GlcNAc,-0.343
same,glycan array binding signal (z-score),[8],0.378
same,glycan array binding signal (z-score),[9],-0.246
same,glycan array binding signal (z-score),[10],1.03
same,glycan array binding signal (z-score),[11],-0.031
same,glycan array binding signal (z-score),[12],0.476
same,glycan array binding signal (z-score),[13],-0.38
same,glycan array binding signal (z-score),[14],0.074
same,glycan array binding signal (z-score),[15],-0.199
same,glycan array binding signal (z-score),[16],0.327
same,glycan array binding signal (z-score),[17],-1.15
same,glycan array binding signal (z-score),[18],-1.29
same,glycan array binding signal (z-score),[19],-0.157
same,glycan array binding signal (z-score),[20],-0.172
same,glycan array binding signal (z-score),[21],0.209
same,glycan array binding signal (z-score),[22],-0.182
same,glycan array binding signal (z-score),[23],-0.092
same,glycan array binding signal (z-score),[24],0.096
same,glycan array binding signal (z-score),[25],-0.653
same,glycan array binding signal (z-score),[26],-0.611
same,glycan array binding signal (z-score),[27],0.668
same,glycan array binding signal (z-score),[28],-0.644
same,glycan array binding signal (z-score),Fuc(a1-4)GlcNAc,-0.225
same,glycan array binding signal (z-score),Fuc(b1-3)GlcNAc,0.294
same,glycan array binding signal (z-score),Gal(a1-2)Gal,0.98
same,glycan array binding signal (z-score),Gal(a1-3)Gal,0.304
same,glycan array binding signal (z-score),Gal(a1-3)Gal(b1-3)GlcNAc,0.584
same,glycan array binding signal (z-score),[29],-0.352
same,glycan array binding signal (z-score),[30],0.721
same,glycan array binding signal (z-score),[31],-0.101

# 2 consecutive records already listed, for reference:
binder,measurement,setting,value
"LlpA1 (Pseudomonas fluorescens), Q4KHC3 (protein) MGSSHHHHHHSSGLVPRGSHMAWIRYDFTDNGSSVLPARYYMAPNQYLQSPNKRFKLLFQADGNLALYDGAQLAWVADQNTPFTNVSKGNKKDPMMVFMNYGFVLDDPLRGRIWSTTPSDPTMGSREDASLRAFTQVQDDGNIVTVDTIPHWYAPNGRVFTPAVGAAMIIGGTTELVPGQFYSAGEHSLVFQGDGNLVVYGPNSSVIWATYTQNKGGVRCVMQEDGNLVIYAANNGVVWQSGTGGHPGATIRLQANGSFTIVTERPVWARFGYTPTIKPPRVFYPDHKWKTGSYTWNNVF",glycan array binding signal (z-score),[26],-0.611
same,glycan array binding signal (z-score),[27],0.668
